Drawing on PubChem BioAssay AID188 (DTP/NCI, 2004), this text covers survivor count for 3 compounds.

Values are animals surviving of animals treated; these mice carried no tumour. Counts of survivors are from the toxicity check (mostly the fifth day) where no day follows; animals may have died later. Schedules are NCI's codes, taken here to give the interval after Q, in days (D) or hours (H), and the number of doses after X.

The test system of this test is CD2F1 mice, nontumored, toxicity/survival. In words: NCI In Vivo Anticancer Drug Screen. Data for tumor model Nontumored Animals (Toxicity Test) in CD2F1 (CDF1) mice.

Turning to `CN(Cc1ccccc1)/N=N/c1nc[nH]c1C(N)=O`, the survivor count is, setting by setting: (dose: 8.0 mg/kg/injection, schedule: Q03HX016 (ip), vehicle: saline with Tween-80) 8 of 8; (dose: 8.0 mg/kg/injection, schedule: Q03HX024 (ip), vehicle: saline with Tween-80) 8 of 8; (dose: 16.0 mg/kg/injection, schedule: Q03HX016 (ip), vehicle: saline with Tween-80) 8 of 8; (dose: 16.0 mg/kg/injection, schedule: Q03HX024 (ip), vehicle: saline with Tween-80) 8 of 8; (dose: 32.0 mg/kg/injection, schedule: Q03HX016 (ip), vehicle: saline with Tween-80) 8 of 8; (dose: 32.0 mg/kg/injection, schedule: Q03HX024 (ip), vehicle: saline with Tween-80) 8 of 8. Further, the survivor count was 8 of 8 (dose: 64.0 mg/kg/injection, schedule: Q01DX009 (ip), vehicle: saline with Tween-80); 8 of 8 (dose: 64.0 mg/kg/injection, schedule: Q03HX016 (ip), vehicle: saline with Tween-80); 8 of 8 (dose: 64.0 mg/kg/injection, schedule: Q03HX024 (ip), vehicle: saline with Tween-80); 8 of 8 (dose: 64.0 mg/kg/injection, schedule: Q04DX003 (ip), vehicle: saline with Tween-80); 8 of 8 (dose: 64.0 mg/kg/injection, schedule: Q08DX002 (ip), vehicle: saline with Tween-80); 8 of 8 (dose: 128.0 mg/kg/injection, schedule: Q01DX009 (ip), vehicle: saline with Tween-80). In addition, the survivor count runs as follows: (dose: 128.0 mg/kg/injection, schedule: Q04DX003 (ip), vehicle: saline with Tween-80) 8 of 8; (dose: 128.0 mg/kg/injection, schedule: Q08DX002 (ip), vehicle: saline with Tween-80) 8 of 8; (dose: 256.0 mg/kg/injection, schedule: Q01DX009 (ip), vehicle: saline with Tween-80) 8 of 8; (dose: 256.0 mg/kg/injection, schedule: Q04DX003 (ip), vehicle: saline with Tween-80) 8 of 8; (dose: 256.0 mg/kg/injection, schedule: Q08DX002 (ip), vehicle: saline with Tween-80) 8 of 8; (dose: 512.0 mg/kg/injection, schedule: Q01DX009 (ip), vehicle: saline with Tween-80) 6 of 8. Besides, the survivor count reads like this: (dose: 512.0 mg/kg/injection, schedule: Q04DX003 (ip), vehicle: saline with Tween-80) 8 of 8; (dose: 512.0 mg/kg/injection, schedule: Q08DX002 (ip), vehicle: saline with Tween-80) 7 of 8.

In the case of `CCN(C)N=Nc1ccc(C(N)=O)cc1`, the survivor count is 10 of 10 (dose: 79.0 mg/kg/injection, schedule: Q01DX009 (ip), vehicle: Klucel (hydroxypropylcellulose) (HPC)); 10 of 10 (dose: 118.0 mg/kg/injection, schedule: Q01DX009 (ip), vehicle: Klucel (hydroxypropylcellulose) (HPC)); 8 of 10 (dose: 177.0 mg/kg/injection, schedule: Q01DX009 (ip), vehicle: Klucel (hydroxypropylcellulose) (HPC)); 8 of 10 (dose: 266.0 mg/kg/injection, schedule: Q01DX009 (ip), vehicle: Klucel (hydroxypropylcellulose) (HPC)); 0 of 10 (dose: 400.0 mg/kg/injection, schedule: Q01DX009 (ip), vehicle: Klucel (hydroxypropylcellulose) (HPC)).

Regarding `CC(=O)OC1C(NC(=O)N(CCCl)N=O)C(OC(C)=O)C(OC(C)=O)C(NC(=O)N(CCCl)N=O)C1OC(C)=O` (stereo not drawn), the survivor count is 9 of 10 (dose: 20.0 mg/kg/injection, schedule: Q01DX001 (ip), vehicle: saline with Tween-80); 10 of 10 (dose: 30.0 mg/kg/injection, schedule: Q01DX001 (ip), vehicle: saline with Tween-80); 10 of 10 (dose: 40.0 mg/kg/injection, schedule: Q01DX001 (ip), vehicle: saline with Tween-80); 10 of 10 (dose: 60.0 mg/kg/injection, schedule: Q01DX001 (ip), vehicle: saline with Tween-80); 10 of 10 (dose: 90.0 mg/kg/injection, schedule: Q01DX001 (ip), vehicle: saline with Tween-80); 10 of 10 (dose: 130.0 mg/kg/injection, schedule: Q01DX001 (ip), vehicle: saline with Tween-80). The survivor count is, setting by setting: (dose: 200.0 mg/kg/injection, schedule: Q01DX001 (ip), vehicle: saline with Tween-80) 10 of 10; (dose: 300.0 mg/kg/injection, schedule: Q01DX001 (ip), vehicle: saline with Tween-80) 9 of 10.
